# Laboratory results taken from PMC4264864.
# No constants are given. Whether binding was seen depends on the method and setting. Some results given as binding are weak or reduced against the parent protein; the word gives no strength. Where a sequence is shown, tags or fusion partners need not be part of it.
# Biological target: His-tagged BvgS (integral inner membrane sensor protein of the BvgA/S two-component system) (B. pertussis) (UniProt P16575)
# Assay: non-reducing SDS-PAGE and Western blot of Ni-NTA-purified protein; His-BvgS purified on Ni-NTA from B. pertussis BPSH (also BPSH-KOcaps, BPSH-ΔkpsT, BPSH-ΔkpsTcom); Laemmli buffer without β-mercaptoethanol, no heat; blotted with anti-His or anti-BvgS; high MW band >260 kDa, much lower from BPSH-KOcaps and BPSH-ΔkpsT
binder,measurement,value
"His-tagged BvgS (integral inner membrane sensor protein of the BvgA/S two-component system) (protein, UniProt P16575 33-1238) SQELTLVGKAAVPDVEVALDGDDWRWLARKRVLTLGVYAPDIPPFDVTYGERYEGLTADYMAIIAHNLGMQAKVLRYPTREQALSALESGQIDLIGTVNGTDGRQQSLRLSVPYAADHPVIVMPIGARHVPASNLAGQRLAVDINYLPKETLARAYPQATLHYFPSSEQALAAVAYGQADVFIGDALTTSHLVSQSYFNDVRVVAPAHIATGGESFGVRADNTRLLRVVNAVLEAIPPSEHRSLIYRWGLGSSISLDFAHPAYSAREQQWMADHPVVKVAVLNLFAPFTLFRTDEQFGGISAAVLQLLQLRTGLDFEIIGVDTVEELIAKLRSGEADMAGALFVNSARESFLSFSRPYVRNGMVIVTRQDPDAPVDADHLDGRTVALVRNSAAIPLLQRRYPQAKVVTADNPSEAMLMVANGQADAVVQTQISASYYVNRYFAGKLRIASALDLPPAEIALATTRGQTELMSILNKALYSISNDELASIISRWRGSDGDPRTWYAYRNEIYLLIGLGLLSALLFLSWIVYLRRQIRQRKRAERALNDQLEFMRVLIDGTPNPIYVRDKEGRMLLCNDAYLDTFGVTADAVLGKTIPEANVVGDPALAREMHEFLLTRVAAEREPRFEDRDVTLHGRTRHVYQWTIPYGDSLGELKGIIGGWIDITERAELLRKLHDAKESADAANRAKTTFLATMSHEIRTPMNAIIGMLELALLRPTDQEPDRQSIQVAYDSARSLLELIGDILDIAKIEAGKFDLAPVRTALRVLPEGAIRVFDGLARQKGIELVLKTDIVGVDDVLIDPLRMKQVLSNLVGNAIKFTTEGQVVLAVTARPDGDAAHVQFSVSDTGCGISEADQRQLFKPFSQVGGSAEAGPAPGTGLGLSISRRLVELMGGTLVMRSAPGVGTTVSVDLRLTMVEKSVQAAPPAAATAATPSKPQVSLRVLVVDDHKPNLMLLRQQLDYLGQRVIAADSGEAALALWREHAFDVVITDCNMPGISGYELARRIRAAEAAPGYGRTRCILFGFTASAQMDEAQRCRAAGMDDCLFKPIGVDALRQRLNEAVARAALPTPPSPQAAAPATDDATPTAFSAESILALTQNDEALIRQLLEEVIRTNRADVDQLQKLHQQADWPKVSDMAHRLAGGARVVDAKAMIDTVLALEKKAQGQAGPSPEIDGLVRTLAAQSAALETQLRAWLEQRPHQDQP",binding,binds
